Measured values as given in PubChem BioAssay AID330 (DTP/NCI, 2004).
The list is a part of this screen's results and no random one: it is rich in T/C values a quarter to a half above the control, in often repeated tests (any T/C) and in doses without a T/C. Further doses and runs are listed elsewhere. T/C: endpoint of the treated group in % of that of the vehicle group. Some doses have a count of surviving animals in place of a T/C: the source files T/C as zero there, which appears to mark a toxic dose or a test without result, not a measured value. Some survivor counts are full or nearly so, which does not show that the dose was tolerated: the source hardly ever lists a survival T/C far under the control, and the zero likely stands for such cases as well. Counts of survivors are from the toxicity check (mostly the fifth day) where no day follows; animals may have died later. Schedule codes are those of the source, read here as Q, the interval in days (D) or hours (H), X, the number of doses. Some entries were tested several times; their values stand side by side, smallest first. Counts like (3×) say how often a value occurs here. Where survival is the endpoint, the PubChem record calls one and a half times the control and up active, and a quarter to a half above the control has no call in these data; cut-offs in other NCI protocols can differ. Some T/C values are followed by the survivors on the day toxicity was checked, most often the fifth; without a count, all were alive then. Some schedule codes hold Z or #, which are not explained here.

Test system: P388 leukemia ip, CD2F1 mice, survival T/C
Assay: NCI In Vivo Anticancer Drug Screen. Data for tumor model P388 Leukemia (intraperitoneal) in CD2F1 (CDF1) mice
Conditions: T/C endpoint: median survival time, higher T/C = longer survival
[1] = dose: 100.0 mg/kg/injection, schedule: Q01DX009 (ip), vehicle: Klucel (hydroxypropylcellulose) (HPC)
[2] = dose: 100.0 mg/kg/injection, schedule: Q01DX009 (ip), vehicle: saline
[3] = dose: 200.0 mg/kg/injection, schedule: Q01DX001 (ip), vehicle: Klucel (hydroxypropylcellulose) (HPC)

O=P1(N(CCCl)CCCl)NCCCO1 (stereo not drawn)
survivor count (dose: 100.0 mg/kg/injection, schedule: Q01DX005 (ip), vehicle: Klucel (hydroxypropylcellulose) (HPC)): 3 of 6 and 6 of 6 | T/C (dose: 100.0 mg/kg/injection, schedule: Q01DX005 (ip), vehicle: saline, evaluated on day 30): 125, 294, 297 % of control | T/C (dose: 100.0 mg/kg/injection, schedule: Q01DX005 (ip), vehicle: saline, evaluated on day 45): 346 % of control | survivor count (dose: 100.0 mg/kg/injection, schedule: Q01DX005 (ip), vehicle: saline): 8 of 8 | T/C [1]: 86, 87 (2×), 89, 92, 98 (3×), 99, 100 (2×), 101 (2×), 102, 103, 105, 106, 107, 109, 111, 115, 116, 120, 125, 134, 137, 145, 147, 153 % of control | survivor count [1]: 5 of 6, 3 of 3, 6 of 6 | T/C [2]: 105, 116, 175 % of control | survivor count [2]: 6 of 6 and 8 of 8 | survivor count (dose: 100.0 mg/kg/injection, schedule: Q01DX009 (ip), vehicle: water): 6 of 6 | T/C (dose: 100.0 mg/kg/injection, schedule: Q04DX002 (ip), vehicle: Klucel (hydroxypropylcellulose) (HPC)): 97, 128, 152, 182, 184, 193, 209, 211, 221, 228, 243, 245 (2×), 250, 254 (2×), 256 (3×), 258, 261, 263, 266, 267, 269, 272, 275 (2×), 277 (2×), 285 (2×), 294 (2×), 303 % of control | T/C (dose: 100.0 mg/kg/injection, schedule: Q04DX003 (ip), vehicle: Klucel (hydroxypropylcellulose) (HPC), evaluated on day 30): 100, 108, 112 [2 of 3 alive], 113, 114, 133, 136, 148, 163, 166 [5 of 6 alive], 169, 179, 189, 191, 210, 226 (2×), 233, 236, 237, 238, 247, 252 (2×), 252 [2 of 2 alive], 253, 254 (2×), 256, 258, 277 (2×), 280, 290, 297 % of control | T/C (dose: 100.0 mg/kg/injection, schedule: Q04DX003 (ip), vehicle: Klucel (hydroxypropylcellulose) (HPC), evaluated on day 35): 173 % of control | T/C (dose: 100.0 mg/kg/injection, schedule: Q04DX003 (ip), vehicle: saline, evaluated on day 10): 277 % of control | T/C (dose: 100.0 mg/kg/injection, schedule: Q04DX003 (ip), vehicle: saline, evaluated on day 30): 145 % of control | T/C (dose: 100.0 mg/kg/injection, schedule: Q04DX003 (ip), vehicle: saline, evaluated on day 45): 303 and 382 % of control | T/C (dose: 100.0 mg/kg/injection, schedule: Q04DX003 (ip), vehicle: saline, evaluated on day 50): 135 % of control | T/C (dose: 100.0 mg/kg/injection, schedule: Q## X001 (ip), vehicle: saline): 96, 115 [9 of 10 alive], 135, 194 % of control | T/C (dose: 133.0 mg/kg/injection, schedule: Q01DX001 (ip), vehicle: saline, evaluated on day 11): 220 % of control | T/C (dose: 133.0 mg/kg/injection, schedule: Q01DX001 (ip), vehicle: saline, evaluated on day 60): 196, 428 [9 of 10 alive], 532 % of control | T/C (dose: 150.0 mg/kg/injection, schedule: Q01DX001 (ip), vehicle: saline, evaluated on day 5): 190 and 200 % of control | T/C (dose: 150.0 mg/kg/injection, schedule: Q01DX001 (ip), vehicle: saline, evaluated on day 9): 104, 111, 112, 231, 243, 257, 260 % of control | T/C (dose: 160.0 mg/kg/injection, schedule: Q01DX005 (ip), vehicle: saline, evaluated on day 30): 87 (2×), 89, 90, 91, 106, 110, 117, 123, 150, 158, 168, 255, 276, 283, 287, 294 (2×), 300 % of control | T/C (dose: 160.0 mg/kg/injection, schedule: Q01DX005 (ip), vehicle: saline, evaluated on day 35): 100 % of control | T/C (dose: 160.0 mg/kg/injection, schedule: Q01DX005 (ip), vehicle: saline, evaluated on day 60): 100 and 116 % of control | survivor count (dose: 160.0 mg/kg/injection, schedule: Q01DX005 (ip), vehicle: saline): 5 of 6 and 6 of 6 | T/C (dose: 160.0 mg/kg/injection, schedule: Q01DX009 (ip), vehicle: saline, evaluated on day 30): 88, 91, 94 (2×), 96, 98, 99, 100, 101, 103, 106, 113, 121, 130 % of control | T/C (dose: 160.0 mg/kg/injection, schedule: Q01DX009 (ip), vehicle: saline, evaluated on day 35): 97 % of control | T/C (dose: 160.0 mg/kg/injection, schedule: Q01DX009 (ip), vehicle: saline, evaluated on day 60): 97 and 99 % of control | survivor count (dose: 160.0 mg/kg/injection, schedule: Q01DX009 (ip), vehicle: saline): 5 of 6 and 6 of 6 | T/C (dose: 160.0 mg/kg/injection, schedule: Q04DX003 (ip), vehicle: water): 144 % of control | T/C (dose: 160.0 mg/kg/injection, schedule: Q04DX003 (iv), vehicle: saline): 126 % of control | T/C (dose: 165.0 mg/kg/injection, schedule: Q04DX003 (ip), vehicle: saline): 126 % of control | T/C (dose: 175.0 mg/kg/injection, schedule: Q01DX001 (ip), vehicle: saline, evaluated on day 45): 252, 262, 390, 432, 450 % of control | T/C (dose: 175.0 mg/kg/injection, schedule: Q01DX001 (ip), vehicle: saline, evaluated on day 60): 184, 336 [9 of 10 alive], 358, 360, 433, 566 % of control | T/C [3]: 105 (2×), 113 [5 of 6 alive], 150, 199, 228, 243, 247, 255, 262, 264, 266, 267 (4×), 270, 274, 280, 282 (2×), 285, 287 [5 of 6 alive], 291 (3×), 294, 296, 297 % of control | survivor count [3]: 3 of 3 and 6 of 6 (2×) | T/C (dose: 200.0 mg/kg/injection, schedule: Q01DX001 (ip), vehicle: saline, evaluated on day 5): 185, 242, 252, 302 % of control | T/C (dose: 200.0 mg/kg/injection, schedule: Q01DX001 (ip), vehicle: saline, evaluated on day 9): 95, 176, 232 % of control | T/C (dose: 200.0 mg/kg/injection, schedule: Q01DX001 (ip), vehicle: saline, evaluated on day 10): 281 % of control | T/C (dose: 200.0 mg/kg/injection, schedule: Q01DX001 (ip), vehicle: saline, evaluated on day 11): 262 % of control | T/C (dose: 200.0 mg/kg/injection, schedule: Q01DX001 (ip), vehicle: saline, evaluated on day 20): 262 % of control [4 of 7 alive] | T/C (dose: 200.0 mg/kg/injection, schedule: Q01DX001 (ip), vehicle: saline, evaluated on day 21): 194 % of control | T/C (dose: 200.0 mg/kg/injection, schedule: Q01DX001 (ip), vehicle: saline, evaluated on day 30): 108 [1 of 1 alive], 163, 209, 220, 231, 243 [2 of 2 alive], 245, 250 (2×), 265 (2×), 267, 270, 274, 277, 283, 285, 294 (2×), 297 (3×), 300 (3×), 300 [5 of 6 alive], 309 % of control
